Measurements reported in article PMC8552907.
No constants are given. Whether binding was seen depends on the method and setting. In cells and extracts the contact can be indirect. Some binding calls cover weakened binding; strength is not graded here. For part of these data: Sequences can lack the tags named with a protein.

By UniProt entry, the sequences of proteins in these tests, tags left out.
UniProt Q13838: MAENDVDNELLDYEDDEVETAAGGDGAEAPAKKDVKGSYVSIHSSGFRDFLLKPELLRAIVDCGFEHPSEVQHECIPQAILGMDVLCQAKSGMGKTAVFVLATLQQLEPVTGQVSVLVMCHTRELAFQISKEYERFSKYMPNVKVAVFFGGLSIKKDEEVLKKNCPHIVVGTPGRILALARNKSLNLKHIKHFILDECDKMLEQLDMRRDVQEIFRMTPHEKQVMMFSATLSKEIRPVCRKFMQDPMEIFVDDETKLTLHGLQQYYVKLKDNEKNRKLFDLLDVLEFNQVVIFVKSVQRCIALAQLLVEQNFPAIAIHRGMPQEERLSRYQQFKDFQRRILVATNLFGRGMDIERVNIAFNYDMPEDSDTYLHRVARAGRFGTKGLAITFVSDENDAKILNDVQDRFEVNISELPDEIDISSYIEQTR
UniProt O15393: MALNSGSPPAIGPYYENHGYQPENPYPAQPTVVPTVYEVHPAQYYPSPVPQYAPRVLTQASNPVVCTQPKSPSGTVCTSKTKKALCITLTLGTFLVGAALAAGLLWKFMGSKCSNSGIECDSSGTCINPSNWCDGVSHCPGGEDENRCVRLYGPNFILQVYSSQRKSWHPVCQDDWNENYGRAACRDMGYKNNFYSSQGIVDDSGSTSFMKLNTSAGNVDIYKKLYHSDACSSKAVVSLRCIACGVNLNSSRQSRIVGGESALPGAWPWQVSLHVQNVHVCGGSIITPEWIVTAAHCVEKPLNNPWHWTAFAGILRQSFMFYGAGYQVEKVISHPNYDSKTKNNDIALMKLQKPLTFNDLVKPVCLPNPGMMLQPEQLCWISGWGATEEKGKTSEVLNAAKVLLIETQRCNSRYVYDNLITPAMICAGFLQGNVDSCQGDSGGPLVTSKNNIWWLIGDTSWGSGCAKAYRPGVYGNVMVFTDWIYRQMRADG

Columns and labels:
[1] = molecular target: Strep-HA-tagged DDX39B (human) (UniProt Q13838); assay: co-IP
[2] = molecular target: Strep-HA-tagged TMPRSS2 (human) (UniProt O15393); assay: co-IP

Molecule: V5-tagged TMPRSS2 (from UniProt O15393 1-492) (enzyme)
- binding [1]: binds

Molecule: V5-tagged DDX39B (from UniProt Q13838 1-428) (enzyme)
- binding [2]: binds

B1: V5-tagged TOP3B (enzyme, UniProt O95985 1-862)
chain: MKTVLMVAEKPSLAQSIAKILSRGSLSSHKGLNGACSVHEYTGTFAGQPVRFKMTSVCGHVMTLDFLGKYNKWDKVDPAELFSQAPTEKKEANPKLNMVKFLQVEGRGCDYIVLWLDCDKEGENICFEVLDAVLPVMNKAHGGEKTVFRARFSSITDTDICNAMACLGEPDHNEALSVDARQELDLRIGCAFTRFQTKYFQGKYGDLDSSLISFGPCQTPTLGFCVERHDKIQSFKPETYWVLQAKVNTDKDRSLLLDWDRVRVFDREIAQMFLNMTKLEKEAQVEATSRKEKAKQRPLALNTVEMLRVASSSLGMGPQHAMQTAERLYTQGYISYPRTETTHYPENFDLKGSLRQQANHPYWADTVKRLLAEGINRPRKGHDAGDHPPITPMKSATEAELGGDAWRLYEYITRHFIATVSHDCKYLQSTISFRIGPELFTCSGKTVLSPGFTEVMPWQSVPLEESLPTCQRGDAFPVGEVKMLEKQTNPPDYLTEAELITLMEKHGIGTDASIPVHINNICQRNYVTVESGRRLKPTNLGIVLVHGYYKIDAELVLPTIRSAVEKQLNLIAQGKADYRQVLGHTLDVFKRKFHYFVDSIAGMDELMEVSFSPLAATGKPLSRCGKCHRFMKYIQAKPSRLHCSHCDETYTLPQNGTIKLYKELRCPLDDFELVLWSSGSRGKSYPLCPYCYNHPPFRDMKKGMGCNECTHPSCQHSLSMLGIGQCVECESGVLVLDPTSGPKWKVACNKCNVVAHCFENAHRVRVSADTCSVCEAALLDVDFNKAKSPLPGDETQHMGCVFCDPVFQELVELKHAASCHPMHRGGPGRRQGRGRGRARRPPGKPNPRRPKDKMSALAAYFV
- binding [1]: binds
